Assay results published in patent US7148204B2, “Antisense modulation of bcl-x expression” (Isis Pharmaceuticala, Inc., priority 1998, dated 2006).
Some entries share one result that the patent states for a list of compounds. In the oligonucleotide strings, read from the 5' end, every base follows the letter of its sugar. An asterisk marks phosphorothioate; unmarked linkages are phosphodiester. Other units and linkages are bracketed, terminal groups are in braces. A string of capitals states the bases alone. d = 2'-deoxy (DNA)

Columns and labels:
[1] = system: human bcl-x mRNA; test: Northern blot analysis of bcl-x mRNA levels in A549 cells; type: cell-based; conditions: 400 nM oligonucleotide
Procedure: Eighteen hours after antisense treatment, cell monolayers were washed twice with cold PBS and lysed in 1 mL RNAZOL™ (TEL-TEST “B” Inc., Friendswood, Tex.). Total RNA was prepared following manufacturer's recommended protocols. Twenty micrograms of total RNA was fractionated by electrophoresis through 1.2% agarose gels containing 1.1% formaldehyde using a MOPS buffer system (AMRESCO, Inc. Solon, Ohio). RNA was transferred from the gel to HYBOND™-N+ nylon membranes (Amersham Pharmacia Biotech, Piscataway, N.J.) by overnight capillary transfer using a Northern/Southern Transfer buffer system (TEL-TEST “B” Inc., Friendswood, Tex.). RNA transfer was confirmed by UV visualization. Membranes were fixed by UV cross-linking using a STRATALINKER™ UV Crosslinker 2400 (Stratagene, Inc, La Jolla, Calif.).
Membranes were probed using QUICKHYB™ hybridization solution (Stratagene, La Jolla, Calif.) using manufacturer's recommendations for stringent conditions with an 822-base pair bcl-x specific probe prepared by PCR from bases 33–855 of human bcl-xl sequence (Boise et al., 1993, Cell 74:597–608; GenBank accession no. L20121). To normalize for variations in loading and transfer efficiency membranes were stripped and probed for glyceraldehyde-3-phosphate dehydrogenase (GAPDH) RNA (Clontech, Palo Alto, Calif.). Hybridized membranes were visualized and quantitated using a PHOSPHORIMAGER™ and IMAGEQUANT™ Software V3.3 (Molecular Dynamics, Sunnyvale, Calif.). Data was normalized to GAPDH levels in untreated controls.
Oligonucleotides were tested by Northern blot analysis as described in Example 14. Oligonucleotides were tested in A549 cells at a concentration of 400 nM. The results are Table 2:
Oligonucleotides were tested by Northern blot analysis as described in Example 14. Chimeric oligonucleotides were in A549 cells at a concentration of 200 nM. Where present, “N.D.” indicates “not determined”.

[2] = system: bcl-xl mRNA; test: Northern blot of bcl-xl mRNA in primary keratinocytes (hKn); type: cell-based, human; conditions: hKn cells, 200 nM screening dose

Sequence	% INHIB (bcl-x mRNA levels) [1]	inhibition of bcl-xl mRNA expression [2] [%]
ATTCAGTCCCTTCTGGGGCC (dA*dT*dT*dC*dA*dG*dT*dC*dC*dC*dT*dT*dC*dT*dG*dG*dG*dG*dC*dC; antisense) [ISIS 11226]	greater than 50%	–
CAGTGGCTCCATTCACCGCG (dC*dA*dG*dT*dG*dG*dC*dT*dC*dC*dA*dT*dT*dC*dA*dC*dC*dG*dC*dG; antisense) [ISIS 11225]	greater than 50%	–
CCGGTTGCTCTGAGACATTT (dC*dC*dG*dG*dT*dT*dG*dC*dT*dC*dT*dG*dA*dG*dA*dC*dA*dT*dT*dT; antisense) [ISIS 11228]	greater than 50%	–
GTTGAAGCGTTCCTGGCCCT (antisense dG*dT*dT*dG*dA*dA*dG*dC*dG*dT*dT*dC*dC*dT*dG*dG*dC*dC*dC*dT) [ISIS 11222]	greater than 50%	–
TCCCGGTTGCTCTGAGACAT (5-10-5 2'-MOE gapmer, phosphorothioate, further chemistry not given here) [ISIS 15999]	–	> 90
